Results as given in PMC8993893.
No constants are given. Whether binding was seen depends on the method and setting. Binding seen in cells or lysates may run through a third protein. Some binding calls cover weakened binding; strength is not graded here. Where a sequence is shown, tags or fusion partners need not be part of it.

Protein sequences, listed by entry. Tags and fused reporters are not part of them. Lines headed by an entry give the natural chain unless they say otherwise; changes in a name come on top.
UniProt Q9UNE7: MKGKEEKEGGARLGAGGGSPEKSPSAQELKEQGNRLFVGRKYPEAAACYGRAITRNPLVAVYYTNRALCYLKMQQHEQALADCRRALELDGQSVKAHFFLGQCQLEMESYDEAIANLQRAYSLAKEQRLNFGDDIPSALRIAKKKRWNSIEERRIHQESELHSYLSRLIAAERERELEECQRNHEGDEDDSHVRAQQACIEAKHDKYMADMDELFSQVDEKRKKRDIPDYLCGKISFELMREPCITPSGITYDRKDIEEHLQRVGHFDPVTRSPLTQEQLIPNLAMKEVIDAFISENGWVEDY

Assays:
Assay in all cases: co-IP; anti-FLAG IP of FLAG-STUB1 variants from lysates of sgSTUB1-expressing HEK293T cells co-transfected with Myc-JAK1 and V5-IFNγ-R1; NP-40 buffer (1% NP40, 150 mM NaCl, 10 mM TrisHCl, pH 7.4); 10 μg IP antibody 2 h at 4 °C, Protein A beads 2 h at 4 °C; immunoblot
[1] = biological target: FLAG-tagged STUB1 H260Q (UniProt Q9UNE7)
[2] = biological target: FLAG-tagged STUB1 K30A (UniProt Q9UNE7)
[3] = biological target: FLAG-tagged full-length STUB1 (STIP1 homology and U-box containing protein 1) (UniProt Q9UNE7)

- binding [1]: binds
- binding [2]: binds
- binding [3]: binds
B1: V5-tagged IFNγ-R1 (receptor, UniProt P15260 18-489)
chain: EMGTADLGPSSVPTPTNVTIESYNMNPIVYWEYQIMPQVPVFTVEVKNYGVKNSEWIDACINISHHYCNISDHVGDPSNSLWVRVKARVGQKESAYAKSEEFAVCRDGKIGPPKLDIRKEEKQIMIDIFHPSVFVNGDEQEVDYDPETTCYIRVYNVYVRMNGSEIQYKILTQKEDDCDEIQCQLAIPVSSLNSQYCVSAEGVLHVWGVTTEKSKEVCITIFNSSIKGSLWIPVVAALLLFLVLSLVFICFYIKKINPLKEKSIILPKSLISVVRSATLETKPESKYVSLITSYQPFSLEKEVVCEEPLSPATVPGMHTEDNPGKVEHTEELSSITEVVTTEENIPDVVPGSHLTPIERESSSPLSSNQSEPGSIALNSYHSRNCSESDHSRNGFDTDSSCLESHSSLSDSEFPPNNKGEIKTEGQELITVIKAPTSFGYDKPHVLVDLLVDDSGKESLIGYRPTEDSKEFS
